Test results published in publication PMC10899302.
These are yes or no findings as the source states them, for the method shown. In cells and extracts the contact can be indirect. Some results given as binding are weak or reduced against the parent protein; the word gives no strength.

The chains behind the UniProt entries cited, without tags or fusion partners.
UniProt Q9UHX1: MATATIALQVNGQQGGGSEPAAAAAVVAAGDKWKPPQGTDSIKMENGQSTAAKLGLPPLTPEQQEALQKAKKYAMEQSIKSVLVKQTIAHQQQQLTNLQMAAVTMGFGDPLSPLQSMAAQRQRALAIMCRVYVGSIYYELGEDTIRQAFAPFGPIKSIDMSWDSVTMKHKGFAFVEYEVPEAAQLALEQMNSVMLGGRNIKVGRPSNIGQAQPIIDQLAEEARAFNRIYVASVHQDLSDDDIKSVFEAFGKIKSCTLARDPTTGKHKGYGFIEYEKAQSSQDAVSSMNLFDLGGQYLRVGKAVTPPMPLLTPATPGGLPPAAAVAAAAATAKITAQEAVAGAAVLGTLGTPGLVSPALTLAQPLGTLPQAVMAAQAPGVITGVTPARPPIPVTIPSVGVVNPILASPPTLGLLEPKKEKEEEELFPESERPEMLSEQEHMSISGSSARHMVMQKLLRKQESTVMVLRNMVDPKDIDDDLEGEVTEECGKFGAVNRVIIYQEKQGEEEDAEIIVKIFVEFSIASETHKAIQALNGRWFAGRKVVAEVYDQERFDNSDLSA
UniProt P11940: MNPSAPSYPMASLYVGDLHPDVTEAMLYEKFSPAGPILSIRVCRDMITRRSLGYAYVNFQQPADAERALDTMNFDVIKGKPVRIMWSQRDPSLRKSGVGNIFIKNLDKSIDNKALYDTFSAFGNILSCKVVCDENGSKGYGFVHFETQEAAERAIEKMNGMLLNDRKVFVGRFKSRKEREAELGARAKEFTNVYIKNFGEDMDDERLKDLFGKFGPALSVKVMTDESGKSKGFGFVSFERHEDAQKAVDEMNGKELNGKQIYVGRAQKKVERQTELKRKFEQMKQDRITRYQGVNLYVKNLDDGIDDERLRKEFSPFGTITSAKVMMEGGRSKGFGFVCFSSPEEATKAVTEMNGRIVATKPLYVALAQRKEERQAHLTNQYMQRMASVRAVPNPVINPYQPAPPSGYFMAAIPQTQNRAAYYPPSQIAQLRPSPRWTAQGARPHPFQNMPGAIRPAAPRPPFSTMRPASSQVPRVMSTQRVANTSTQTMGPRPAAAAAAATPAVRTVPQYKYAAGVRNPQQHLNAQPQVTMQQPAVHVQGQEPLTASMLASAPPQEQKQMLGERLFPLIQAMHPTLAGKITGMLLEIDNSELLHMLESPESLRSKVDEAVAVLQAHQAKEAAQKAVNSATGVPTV

Target: Poly(U) binding splicing factor 60 (PUF60), Flag-tagged (UniProt Q9UHX1)
Assay: co-IP; FLAG antibody (IgG as control) on protein A/G beads, incubated with total protein extraction of OVCAR8 and ES-2 cells transfected with PUF60-Flag plasmid, overnight at 4 °C; washed 3 times with extraction buffer; western blotting

**Q.** How did the binding turn out when “poly(A)-binding protein cytoplasmic 1 (PABPC1) (from UniProt P11940 1-636)” was run?
**A.** Its binding is “binds”.
